Our source for the IC50 values is patent publication US20240390490A1, “PHARMACEUTICAL COMPOSITIONS FOR THE TREATMENT OF CANCERS” (Rutgers, The State University of New Jersey, priority 2021, published 2024).

Holding throughout (assay): cells
In test [1] the test system is MDA-MB-231 cells. The conditions noted are these: Homo sapiens, read-out: Cell Viability IC50 (μM) ± SEM. The method, then:
(§1) Cells in media with vehicle treatment are considered control wells. MTT (3-(4,5-dimethyl-2-thiazolyl)-2,5-diphenyl-2H-tetrazolium bromide) was prepared as a stock solution of 5 mg/mL in 1× phosphate-buffered saline (PBS, pH 7.2). At the end of the drug treatment period (24 or 48 or 72 hours), 10 μL of MTT solution was added to each well. After incubation for 4 hours at 37° C., 100 μL of solubilizing buffer (10% sodium dodecyl sulfate dissolved in 0.01 N HCl) was added to each well. After a 15-minute incubation at 37° C., the 96-well plate was read by a plate reader at 590 nm for absorbance density values to determine the cell viability. The cell viability (percentage of control) is calculated by using the following formula: (OD of treated well (−blank))/(mean OD control well (−blank))×100. […] Drug effects on these cells were determined in quadruplicate wells in three independent experiments.

Test [2] relates to MDA-MB-231, MDA-MB-468, and T47D cells. Particulars: Homo sapiens, 72 h, read-out: IC50 dose. The method, then:
as §1

In test [3] the test system is MDA-MB-468 cells. Particulars: Homo sapiens, read-out: Cell Viability IC50 (μM) ± SEM. The method, then:
as §1

In test [4] the test system is T47D cells. The conditions noted are these: Homo sapiens, read-out: Cell Viability IC50 (μM) ± SEM. The method, then: as §1

Where two headings read alike, the source gives them in different places.

The term IC50 denotes the concentration at which inhibition is half-maximal. In the case of `CC(C)NCC(O)COc1cccc2ccccc12` (stereo not shown) [PRO, propranolol], the half-maximal inhibitory concentration (IC50) in test [1] (MDA-MB-231, 24 h) is 100.5 ± 0.38 µM; in test [1] (MDA-MB-231, 48 h), 100.5 ± 0.29 µM; in test [1] (MDA-MB-231, 72 h), 100.2 ± 0.97 µM; in test [2] it was 100 to 120 µM; in test [3] (MDA-MB-468, 24 h), 120.5 ± 0.86 µM; in test [3] (MDA-MB-468, 48 h), 120.5 ± 0.98 µM. Further, the IC50 in test [3] (MDA-MB-468, 72 h) is 100 ± 1.04 µM; in test [4] (24 h) it was 100.2 ± 0.74 µM; in test [4] (48 h) it was 105 ± 1.69 µM; in test [4] (72 h) it was 100.7 ± 0.45 µM.
